Values joined by “and” are separate entries in the source; they are usually repeats but may differ in a detail not shown here. Identical values can stand only once. Inconclusive means that the source gave no clear call. Such entries were picked first, then a sample of the others. A potency beside an inconclusive call is a rough fit, not a confirmed value. Active and inactive are the calls of the source. Calls come from the whole dose curve; as a rule, active = well fitted curve in the direction sought with a large enough effect; inconclusive = small, poorly fitted or top-dose-only effect, or another doubt; inactive = no such curve, though single readings can be large; an effect the other way counts as inactive or inconclusive.
What was measured:
[1] = Quantitative highthroughput screen to assess conditional lethalithy of NOMO1 cells grown in RPMI1640 with untreated serum (RPMI+s) (AID 1963876); conditions: NOMO1 AML cells in RPMI+serum, CellTiter-Glo viability, 48 h; viability: at 45.8 µM (top of the series); note: nearly all actives have a fitted effect of over 35% in size
How it was run: (§1)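 Each medium arm—HPLM with 10% dialyzed FBS, or RPMI1640 with 5 mM glucose and 10% untreated or dialyzed FBS—was screened against an 11-point, 3-fold compound titration for 48 h at 37 °C, with CellTiter-Glo luminescence as endpoint.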

[2] = Quantitative highthroughput screen to assess conditional lethalithy of NOMO1 cells grown in RPMI1640 with dialyzed fetal bovine serum (RPMI+ds) (AID 1963877); note: nearly all actives have a fitted effect of over 30% in size
How it was run: as §1

[3] = Quantitative highthroughput screen to assess conditional lethalithy of P12 Ichikawa cells grown in RPMI1640 with dialyzed fetal bovine serum (RPMI+ds) (AID 1963880); conditions: Potency: P12-Ichikawa viability; note: nearly all actives have a fitted effect of over 35% in size
How it was run: as §1

[4] = Quantitative highthroughput screen to assess conditional lethalithy of SEM cells grown in RPMI1640 with dialyzed fetal bovine serum (RPMI+ds) (AID 1963884); conditions: SEM B-ALL cells, RPMI+dialyzed FBS, CellTiter-Glo viability, 48 h; viability: at 45.8 µM (top of the series); note: nearly all actives have a fitted effect of over 35% in size
How it was run: as §1

[5] = Quantitative highthroughput screen to assess conditional lethalithy of NOMO1 cells grown in Human Plasma-Like Medium with dialyzed fetal bovine serum (HPLM+ds) (AID 1963878); conditions: NOMO1 AML cells in HPLM+ds, CellTiter-Glo viability, 48 h; viability: at 45.8 µM (top of the series); note: nearly all actives have a fitted effect of over 35% in size
How it was run: as §1

[6] = Cellular viability qHTS for adrenocortical cancer (ACC) cell line NCI-H295R (AID 1963990); conditions: CellTiter-Glo ATP luminescence, 48 h; series mostly up to 46.1 µM; note: nearly all actives have a fitted effect of over 60% in size
How it was run: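 IC50 and maximal efficacy derive from four-parameter logistic modelling of titration curves, with reads scaled between DMSO-only wells (0%) and doxorubicin hydrochloride (100% inhibition). Compounds spanned up to 46 uM over 48 h.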

[7] = Quantitative highthroughput screen to assess conditional lethalithy of P12 Ichikawa cells grown in Human Plasma-Like Medium with dialyzed fetal bovine serum (HPLM+ds) (AID 1963879); conditions: Potency: viability; note: nearly all actives have a fitted effect of over 35% in size
How it was run: as §1

[8] = Quantitative highthroughput screen to assess conditional lethalithy of SEM cells grown in Human Plasma-Like Medium with dialyzed fetal bovine serum (HPLM+ds) (AID 1963882); note: nearly all actives have a fitted effect of over 35% in size
How it was run: as §1

[9] = Quantitative highthroughput screen to assess conditional lethalithy of SEM cells grown in RPMI1640 with unreated serum (RPMI+s) (AID 1963883); conditions: SEM B-ALL cells, CellTiter-Glo viability, 48 h; viability: at 45.8 µM (top of the series); note: nearly all actives have a fitted effect of over 35% in size
How it was run: as §1

[10] = Quantitative highthroughput screen to assess conditional lethalithy of P12 Ichikawa cells grown in RPMI1640 with untreated serum (RPMI+s) (AID 1963881); conditions: Potency: viability; note: nearly all actives have a fitted effect of over 35% in size
How it was run: as §1

[11] = Cellular viability qHTS for adrenocortical cancer (ACC) cell line SW-13 (AID 1963989); conditions: SW-13 ACC cells viability, CellTiter-Glo, 48 h; activity (max response): active compounds read low; note: nearly all actives have a fitted effect of over 65% in size
How it was run: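 Luminescent ATP read-out (CellTiter-Glo, 20 min at room temperature) measured metabolically competent SW-13 cells after 48 h compound treatment. Final concentrations spanned up to 46 uM; bortezomib served as positive control.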
Potency is the fitted concentration of half-maximal effect.

SMILES	Potency [1]	Potency [2]	Potency [3]	Potency [4]	Potency [5]	Potency [6]	Potency [7]	Potency [8]	Potency [9]	Potency [10]	Potency [11]
CCOC1OC(=O)C[C@H]1NC(=O)[C@@H]1CCCN1C(=O)[C@@H](NC(=O)c1ccc(N)c(Cl)c1)C(C)(C)C (stereo partly drawn)	inconclusive: 0.372 µM [cytotoxic, full curve]	inconclusive: 0.332 µM [cytotoxic, full curve]	active: 3.32 µM	inactive	–	–	–	–	–	–	–
CCc1cc(C(C)=NOCc2ccc(C3CCCCC3)c(C(F)(F)F)c2)ccc1CN1CC(C(=O)O)C1	active: 8.33 µM	inconclusive: 7.43 µM [cytotoxic, full curve]	–	inconclusive: 14.8 µM [cytotoxic, partial curve, poor fit]	inconclusive: 2.35 µM [cytotoxic, full curve]	–	–	–	–	–	–
CC1(O)CC(c2nc(-c3ccc4ccc(-c5ccccc5)nc4c3)c3c(N)nccn23)C1 (stereo not drawn)	active: 3.72 µM	active: 3.72 µM	active: 5.9 µM	–	–	inconclusive: 2.24 µM [cytotoxic, full curve]	–	–	–	–	–
CCNc1cc(NC2CCC(O)CC2)nc(Nc2ccc3c(ccn3Cc3ccccc3)c2)n1 (stereo not drawn)	inactive	inactive	–	–	–	–	inactive	inactive	inconclusive: 33.2 µM [cytotoxic, single point]	–	–
Cc1cnn(C)c1C(=O)Nc1cc(Nc2ccc3c(C=Cc4ccccn4)n[nH]c3c2)ccc1F	inconclusive: 29.6 µM [cytotoxic, single point]	inconclusive: 20.9 µM [cytotoxic, partial curve]	inconclusive: 20.9 µM [cytotoxic, partial curve]	–	–	–	–	–	active: 3.72 µM	inconclusive: 20.9 µM [cytotoxic, partial curve]	–
C[C@@H]1C[C@H]2[C@@H]3CCC4=CC(=O)C=C[C@]4(C)[C@@]3(Cl)[C@@H](O)C[C@]2(C)[C@@]1(OC(=O)c1ccco1)C(=O)CCl	inconclusive: 11.8 µM [cytotoxic, partial curve, poor fit]	active: 6.62 µM	inconclusive: 0.0047 µM [cytotoxic, full curve]	–	–	inconclusive: 20.6 µM [cytotoxic, single point] and inconclusive: 35.5 µM [cytotoxic, single point]	inconclusive: 0.0053 µM [cytotoxic, full curve]	–	–	inconclusive: 0.0053 µM [cytotoxic, full curve]	inconclusive: 18.4 µM [cytotoxic, single point] and inconclusive: 35.5 µM [cytotoxic, single point]
Nc1nccc(Oc2ccc(NC(=O)c3c[nH]cc(-c4ccc(F)cc4)c3=O)cc2F)c1Cl	inconclusive: 37.2 µM [cytotoxic, single point]	inconclusive: 37.2 µM [cytotoxic, single point]	–	inconclusive: 0.0059 µM [cytotoxic, full curve, poor fit]	–	–	inconclusive: 33.2 µM [cytotoxic, single point]	inconclusive: 0.296 µM [cytotoxic, partial curve, poor fit]	–	inconclusive: 26.4 µM [cytotoxic, single point]	–
N#Cc1ccc(COC[C@H]2O[C@@H](n3c(NCc4ccc(Cl)c(Cl)c4)nc4c(N)ncnc43)[C@@H](O)[C@@H]2O)cc1	inconclusive: 13.2 µM [cytotoxic, partial curve]	inconclusive: 16.6 µM [cytotoxic, partial curve]	inconclusive: 16.6 µM [cytotoxic, partial curve]	inconclusive: 20.9 µM [cytotoxic, partial curve]	–	–	–	–	inconclusive: 8.33 µM [cytotoxic, partial curve]	inconclusive: 11.8 µM [cytotoxic, partial curve]	–
CCNC(=O)Nc1ccc(Oc2ncnc(N)c2C=NOC)cc1Cl	inactive	inactive	–	active: 0.935 µM	–	–	–	–	inconclusive: 0.743 µM [cytotoxic, full curve, poor fit]	inactive	–
CNC(=O)c1ccc(Nc2cc(Nc3ccccc3S(=O)(=O)C(C)C)c3cc[nH]c3n2)nc1	inconclusive: 3.72 µM [cytotoxic, full curve]	inconclusive: 3.72 µM [cytotoxic, full curve]	inconclusive: 2.35 µM [cytotoxic, full curve]	active: 1.05 µM	–	–	–	inconclusive: 1.18 µM [cytotoxic, full curve]	–	–	–
Cn1c(=O)c2c(ncn2CC(O)CO)n(C)c1=O (stereo not drawn)	inconclusive: 33.2 µM [cytotoxic, partial curve, poor fit]	inconclusive: 18.7 µM [cytotoxic, partial curve]	–	–	–	–	–	–	–	inactive	–
COc1cc2nccc(Oc3ccc(NC(=O)Nc4ccc(F)cc4F)c(F)c3)c2cc1OC	inactive	inconclusive: 23.5 µM [cytotoxic, single point]	inconclusive: 37.2 µM [cytotoxic, single point]	inconclusive: 0.0105 µM [cytotoxic, full curve]	–	inconclusive: 3.16 µM [cytotoxic, single point]	active: 23.5 µM	–	active: 0.209 µM	inconclusive: 33.2 µM [cytotoxic, single point]	–
CC(=O)Oc1ccccc1C(=O)Nc1ncc([N+](=O)[O-])s1	inactive	–	inconclusive: 3.03 µM [cytotoxic, partial curve, poor fit]	–	inconclusive: 15.2 µM [cytotoxic, single point]	inconclusive: 25.9 µM [cytotoxic, single point]	inconclusive: 60.5 µM [cytotoxic, single point]	inconclusive: 54 µM [cytotoxic, single point]	–	–	–
CCOC(=O)O[C@]1(C(=O)OCCl)CC[C@@H]2[C@H]3CCC4=CC(=O)C=C[C@]4(C)[C@@H]3[C@@H](O)C[C@@]21C	inactive	–	–	–	inconclusive: 9.35 µM [cytotoxic, partial curve, poor fit]	–	inactive	–	–	inactive	–
O=C(Nc1ccccc1)Nc1ccc(-c2ccc(C(=O)[C@H]3CCC[C@H]3C(=O)O)cc2)cc1	inconclusive: 18.7 µM [cytotoxic, partial curve, poor fit]	–	–	–	inconclusive: 1.05 µM [cytotoxic, full curve]	–	–	–	–	–	–
COc1ccc(-c2coc3cc(O)ccc3c2=O)cc1	inconclusive: 33.2 µM [cytotoxic, single point]	–	inactive	inactive	inconclusive: 11.8 µM [cytotoxic, partial curve]	–	inactive	inactive	–	–	–
Oc1ccc([C@@H]2Oc3ccc(O)cc3[C@@H]3CCC[C@@H]32)cc1	inconclusive: 23.5 µM [cytotoxic, partial curve]	–	inconclusive: 16.6 µM [cytotoxic, partial curve]	active: 10.5 µM	inconclusive: 16.6 µM [cytotoxic, partial curve]	–	active: 13.2 µM	inconclusive: 11.8 µM [cytotoxic, full curve, poor fit]	inconclusive: 13.2 µM [cytotoxic, partial curve, poor fit]	–	inconclusive: 7.94 µM [cytotoxic, full curve]
NC[C@@H]1O[C@@H](O[C@H]2[C@@H](O)[C@H](O[C@@H]3[C@@H](O)[C@@H](N)C[C@H](N)[C@H]3O[C@H]3O[C@H](CN)[C@@H](O)[C@@H](O)[C@H]3N)O[C@H]2CO)[C@H](N)[C@@H](O)[C@@H]1O	inactive	–	inactive	–	inactive	–	–	inactive	inactive	inactive	–
O=C1NC(=O)C(=Cc2ccc3nccc(-c4ccncc4)c3c2)S1	active: 2.64 µM	active: 1.32 µM	–	–	–	–	–	active: 0.935 µM	–	–	–
COc1c(C)cnc(Cn2cnc3c(Cl)nc(N)nc32)c1C	active: 0.743 µM	–	inconclusive: 0.296 µM [cytotoxic, full curve]	active: 0.296 µM	active: 0.662 µM	active: 1.78 µM	inconclusive: 0.59 µM [cytotoxic, full curve]	active: 0.372 µM	active: 0.264 µM	inconclusive: 0.264 µM [cytotoxic, full curve]	active: 2 µM
CO[C@H]1C[C@@H]2CC[C@@H](C)[C@@](O)(O2)C(=O)C(=O)N2CCCC[C@@H]2C(=O)O[C@H]([C@H](C)C[C@@H]2CC[C@H](OP(C)(C)=O)[C@H](OC)C2)CC(=O)[C@H](C)C=C(C)[C@@H](O)[C@@H](OC)C(=O)[C@H](C)C[C@H](C)C=CC=CC=C1C	inactive	–	inconclusive: 4.69 µM [cytotoxic, partial curve]	inconclusive: 3.72 µM [cytotoxic, partial curve, poor fit]	inconclusive: 5.26 µM [cytotoxic, partial curve, poor fit]	–	–	inconclusive: 0.372 µM [cytotoxic, full curve, poor fit]	inconclusive: 7.43 µM [cytotoxic, partial curve, poor fit]	inconclusive: 0.526 µM [cytotoxic, partial curve, poor fit]	–
C=C1C(=O)O[C@H]2[C@@H]1CCC(C)=CCC[C@@]1(C)O[C@@H]21	active: 4.69 µM	active: 5.9 µM	–	active: 1.48 µM	–	–	–	–	active: 0.833 µM	–	–
CN1CCN(c2c(F)cc3c(=O)c(C(=O)O)cn(CCF)c3c2F)CC1	inactive	–	inactive	inactive	inactive	inconclusive: 6.51 µM [rising, single point]	–	–	inactive	inactive	–
CC1=C[C@@H]2[C@@H]([C@@H](O)C[C@@]3(C)[C@H]2C[C@@H](C)[C@]3(O)C(=O)CO)[C@@]2(C)Cc3cnn(-c4ccccc4)c3C=C12	inactive	–	inconclusive: 0.0296 µM [cytotoxic, full curve]	active: 0.0526 µM	inconclusive: 23.5 µM [cytotoxic, single point]	–	inconclusive: 0.0469 µM [cytotoxic, full curve]	active: 0.0372 µM	inconclusive: 0.0833 µM [cytotoxic, full curve]	inconclusive: 0.0418 µM [cytotoxic, full curve]	–
